Assay: peptide synthesis
Settings: conjugation step, analytical RP-HPLC (Waters Symmetry C18, 280 nm); SDS-PAGE

Protein sequences, listed by entry. Tags and fused reporters are not part of them. Lines headed by an entry give the natural chain unless they say otherwise; changes in a name come on top.
UniProt P32194: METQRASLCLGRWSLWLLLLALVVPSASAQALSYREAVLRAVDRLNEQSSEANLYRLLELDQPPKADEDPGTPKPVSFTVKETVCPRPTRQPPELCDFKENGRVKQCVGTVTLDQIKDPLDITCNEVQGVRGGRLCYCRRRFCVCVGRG

| Substance | final HPLC purity [%] |
| --- | --- |
| ALD40K-PG-1 (RGGRLCYCRRRFCVCVGR; Protegrin-1 mPEG2-butyraldehyde 40K; UniProt P32194 131-148, looked up) | 96.2 |
| [mono]-[4,7-CG-PEG2-FMOC-NHS-40K]-[protegrin-1] (RGGRLCYCRRRFCVCVGR; Protegrin-1 releasable CG-PEG2-FMOC 40K PEG; UniProt P32194 131-148, looked up) | 99.8 |
